# Measured values from the supplement of paper PMC12067093, “Discovery and optimisation of a covalent ligand for TRIM25 and its application to targeted protein ubiquitination” (Chemical Science, 2025).
# Amino acid sequences for entries named in this document (tags omitted). A change or cut given only in a name is not applied to a line headed by its entry.
# UniProt Q17RN3: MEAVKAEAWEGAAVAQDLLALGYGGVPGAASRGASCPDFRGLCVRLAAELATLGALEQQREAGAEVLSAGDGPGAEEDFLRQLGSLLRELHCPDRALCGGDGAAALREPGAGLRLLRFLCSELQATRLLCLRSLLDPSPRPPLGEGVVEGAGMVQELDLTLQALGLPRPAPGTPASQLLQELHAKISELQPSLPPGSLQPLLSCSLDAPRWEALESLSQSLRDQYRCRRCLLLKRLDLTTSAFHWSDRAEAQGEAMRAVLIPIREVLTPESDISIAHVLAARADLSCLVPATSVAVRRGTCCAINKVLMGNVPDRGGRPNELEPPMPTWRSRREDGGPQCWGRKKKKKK
# UniProt P49327, whole entry, looked up: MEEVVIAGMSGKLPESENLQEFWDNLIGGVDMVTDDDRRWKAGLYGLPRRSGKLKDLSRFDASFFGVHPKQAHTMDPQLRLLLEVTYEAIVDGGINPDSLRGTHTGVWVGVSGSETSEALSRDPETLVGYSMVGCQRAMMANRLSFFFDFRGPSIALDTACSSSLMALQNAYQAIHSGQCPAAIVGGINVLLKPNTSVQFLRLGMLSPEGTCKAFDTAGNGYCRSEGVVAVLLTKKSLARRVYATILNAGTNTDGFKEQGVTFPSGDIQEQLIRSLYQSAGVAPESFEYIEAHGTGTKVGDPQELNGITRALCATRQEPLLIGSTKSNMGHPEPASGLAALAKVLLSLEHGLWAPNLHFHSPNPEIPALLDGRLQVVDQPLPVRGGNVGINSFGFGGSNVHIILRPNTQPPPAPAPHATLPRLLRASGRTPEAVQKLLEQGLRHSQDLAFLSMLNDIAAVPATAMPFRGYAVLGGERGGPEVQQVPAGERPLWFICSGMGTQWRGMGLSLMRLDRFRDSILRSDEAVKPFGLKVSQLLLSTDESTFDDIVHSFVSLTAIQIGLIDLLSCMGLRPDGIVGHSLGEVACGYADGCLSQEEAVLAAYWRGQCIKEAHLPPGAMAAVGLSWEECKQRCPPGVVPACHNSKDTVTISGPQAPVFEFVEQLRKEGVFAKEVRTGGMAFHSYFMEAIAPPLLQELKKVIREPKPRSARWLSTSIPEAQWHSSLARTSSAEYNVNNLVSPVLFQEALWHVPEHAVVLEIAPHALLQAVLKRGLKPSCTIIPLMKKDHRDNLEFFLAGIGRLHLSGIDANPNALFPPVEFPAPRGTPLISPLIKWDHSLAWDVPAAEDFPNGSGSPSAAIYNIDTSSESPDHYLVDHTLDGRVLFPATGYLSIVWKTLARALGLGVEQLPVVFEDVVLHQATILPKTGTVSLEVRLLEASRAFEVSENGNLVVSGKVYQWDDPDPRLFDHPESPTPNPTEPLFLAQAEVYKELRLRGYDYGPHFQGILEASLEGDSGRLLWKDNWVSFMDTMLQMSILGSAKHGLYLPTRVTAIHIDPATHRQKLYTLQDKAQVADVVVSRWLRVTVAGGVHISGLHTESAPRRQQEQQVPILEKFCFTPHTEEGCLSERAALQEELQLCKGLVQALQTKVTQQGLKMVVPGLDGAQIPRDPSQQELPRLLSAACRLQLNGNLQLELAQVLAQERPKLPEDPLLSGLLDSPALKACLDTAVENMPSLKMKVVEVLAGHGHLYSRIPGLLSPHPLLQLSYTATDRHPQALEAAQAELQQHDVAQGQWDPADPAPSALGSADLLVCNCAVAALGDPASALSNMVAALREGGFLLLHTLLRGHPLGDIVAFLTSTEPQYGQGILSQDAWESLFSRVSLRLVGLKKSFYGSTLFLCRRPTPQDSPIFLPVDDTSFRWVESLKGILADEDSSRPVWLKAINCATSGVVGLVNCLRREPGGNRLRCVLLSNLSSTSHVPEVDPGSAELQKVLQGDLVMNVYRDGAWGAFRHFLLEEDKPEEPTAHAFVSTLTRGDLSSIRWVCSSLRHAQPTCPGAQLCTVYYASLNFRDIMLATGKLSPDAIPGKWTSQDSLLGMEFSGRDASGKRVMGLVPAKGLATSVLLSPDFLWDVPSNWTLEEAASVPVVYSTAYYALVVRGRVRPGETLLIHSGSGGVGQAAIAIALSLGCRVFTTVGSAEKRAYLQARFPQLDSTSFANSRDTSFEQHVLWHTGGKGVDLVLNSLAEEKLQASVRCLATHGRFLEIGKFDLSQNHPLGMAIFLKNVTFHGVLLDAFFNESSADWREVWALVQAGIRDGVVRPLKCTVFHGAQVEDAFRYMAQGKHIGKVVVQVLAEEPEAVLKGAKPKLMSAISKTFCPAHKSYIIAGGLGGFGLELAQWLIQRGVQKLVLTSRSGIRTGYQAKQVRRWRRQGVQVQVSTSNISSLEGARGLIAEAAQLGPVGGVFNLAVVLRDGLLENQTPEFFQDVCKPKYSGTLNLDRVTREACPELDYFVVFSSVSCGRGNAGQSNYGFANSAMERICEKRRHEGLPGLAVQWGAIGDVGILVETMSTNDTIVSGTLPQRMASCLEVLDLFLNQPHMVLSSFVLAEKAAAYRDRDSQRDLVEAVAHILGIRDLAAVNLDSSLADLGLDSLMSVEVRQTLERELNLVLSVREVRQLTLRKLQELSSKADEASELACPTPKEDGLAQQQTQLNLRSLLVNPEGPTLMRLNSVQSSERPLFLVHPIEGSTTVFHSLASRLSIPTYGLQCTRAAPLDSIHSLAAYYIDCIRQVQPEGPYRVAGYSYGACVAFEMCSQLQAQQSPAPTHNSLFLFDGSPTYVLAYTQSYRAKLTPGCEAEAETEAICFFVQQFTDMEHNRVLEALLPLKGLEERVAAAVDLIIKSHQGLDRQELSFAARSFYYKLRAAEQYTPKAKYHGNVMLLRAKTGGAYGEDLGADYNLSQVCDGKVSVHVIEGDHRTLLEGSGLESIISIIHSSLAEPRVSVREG
# UniProt Q6PIJ6: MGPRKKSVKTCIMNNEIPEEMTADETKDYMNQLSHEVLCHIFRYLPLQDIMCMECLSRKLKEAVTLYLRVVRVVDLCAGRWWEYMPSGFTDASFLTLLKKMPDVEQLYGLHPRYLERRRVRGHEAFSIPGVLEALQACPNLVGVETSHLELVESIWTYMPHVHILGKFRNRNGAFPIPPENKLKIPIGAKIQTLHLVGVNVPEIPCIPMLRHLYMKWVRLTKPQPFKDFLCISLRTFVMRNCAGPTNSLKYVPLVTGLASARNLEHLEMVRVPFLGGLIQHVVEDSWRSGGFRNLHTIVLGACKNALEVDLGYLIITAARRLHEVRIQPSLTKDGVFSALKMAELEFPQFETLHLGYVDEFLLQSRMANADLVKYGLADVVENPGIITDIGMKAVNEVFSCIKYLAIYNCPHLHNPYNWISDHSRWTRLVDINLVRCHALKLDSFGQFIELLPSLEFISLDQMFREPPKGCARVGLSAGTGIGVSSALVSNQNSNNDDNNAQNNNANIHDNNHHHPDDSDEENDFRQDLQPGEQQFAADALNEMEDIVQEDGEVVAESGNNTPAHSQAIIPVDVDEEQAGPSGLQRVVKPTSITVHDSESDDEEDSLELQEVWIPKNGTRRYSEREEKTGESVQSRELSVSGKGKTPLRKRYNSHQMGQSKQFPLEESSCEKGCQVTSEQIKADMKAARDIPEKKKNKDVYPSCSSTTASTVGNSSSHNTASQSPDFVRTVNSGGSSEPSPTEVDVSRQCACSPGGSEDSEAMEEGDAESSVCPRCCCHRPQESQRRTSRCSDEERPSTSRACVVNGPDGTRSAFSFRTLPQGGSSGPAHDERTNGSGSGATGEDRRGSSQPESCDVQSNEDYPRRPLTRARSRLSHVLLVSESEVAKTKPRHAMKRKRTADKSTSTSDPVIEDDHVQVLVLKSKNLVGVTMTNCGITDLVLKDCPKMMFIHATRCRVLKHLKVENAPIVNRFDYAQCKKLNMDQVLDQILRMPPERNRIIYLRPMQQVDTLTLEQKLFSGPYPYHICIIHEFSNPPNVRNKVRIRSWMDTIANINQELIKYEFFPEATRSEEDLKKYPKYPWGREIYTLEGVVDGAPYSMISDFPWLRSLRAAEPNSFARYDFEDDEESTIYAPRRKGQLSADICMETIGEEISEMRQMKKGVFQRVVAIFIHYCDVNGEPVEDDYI
# UniProt Q9NSD9: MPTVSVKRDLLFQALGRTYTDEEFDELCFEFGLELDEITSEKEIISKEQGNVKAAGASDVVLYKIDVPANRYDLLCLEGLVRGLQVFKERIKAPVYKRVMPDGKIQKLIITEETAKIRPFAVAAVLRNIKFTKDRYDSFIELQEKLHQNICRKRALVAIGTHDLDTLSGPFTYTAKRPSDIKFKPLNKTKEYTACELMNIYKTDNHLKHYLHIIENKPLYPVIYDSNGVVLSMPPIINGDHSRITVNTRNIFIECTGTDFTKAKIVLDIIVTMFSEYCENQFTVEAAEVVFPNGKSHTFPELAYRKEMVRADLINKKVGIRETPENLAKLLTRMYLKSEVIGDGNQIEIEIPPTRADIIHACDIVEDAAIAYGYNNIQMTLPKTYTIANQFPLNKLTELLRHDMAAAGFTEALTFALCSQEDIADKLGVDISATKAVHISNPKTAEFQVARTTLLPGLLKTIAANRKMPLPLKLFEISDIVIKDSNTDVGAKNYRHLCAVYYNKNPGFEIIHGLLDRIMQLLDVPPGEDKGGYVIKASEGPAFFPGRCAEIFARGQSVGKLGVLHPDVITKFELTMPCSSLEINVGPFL
# UniProt Q9UK61: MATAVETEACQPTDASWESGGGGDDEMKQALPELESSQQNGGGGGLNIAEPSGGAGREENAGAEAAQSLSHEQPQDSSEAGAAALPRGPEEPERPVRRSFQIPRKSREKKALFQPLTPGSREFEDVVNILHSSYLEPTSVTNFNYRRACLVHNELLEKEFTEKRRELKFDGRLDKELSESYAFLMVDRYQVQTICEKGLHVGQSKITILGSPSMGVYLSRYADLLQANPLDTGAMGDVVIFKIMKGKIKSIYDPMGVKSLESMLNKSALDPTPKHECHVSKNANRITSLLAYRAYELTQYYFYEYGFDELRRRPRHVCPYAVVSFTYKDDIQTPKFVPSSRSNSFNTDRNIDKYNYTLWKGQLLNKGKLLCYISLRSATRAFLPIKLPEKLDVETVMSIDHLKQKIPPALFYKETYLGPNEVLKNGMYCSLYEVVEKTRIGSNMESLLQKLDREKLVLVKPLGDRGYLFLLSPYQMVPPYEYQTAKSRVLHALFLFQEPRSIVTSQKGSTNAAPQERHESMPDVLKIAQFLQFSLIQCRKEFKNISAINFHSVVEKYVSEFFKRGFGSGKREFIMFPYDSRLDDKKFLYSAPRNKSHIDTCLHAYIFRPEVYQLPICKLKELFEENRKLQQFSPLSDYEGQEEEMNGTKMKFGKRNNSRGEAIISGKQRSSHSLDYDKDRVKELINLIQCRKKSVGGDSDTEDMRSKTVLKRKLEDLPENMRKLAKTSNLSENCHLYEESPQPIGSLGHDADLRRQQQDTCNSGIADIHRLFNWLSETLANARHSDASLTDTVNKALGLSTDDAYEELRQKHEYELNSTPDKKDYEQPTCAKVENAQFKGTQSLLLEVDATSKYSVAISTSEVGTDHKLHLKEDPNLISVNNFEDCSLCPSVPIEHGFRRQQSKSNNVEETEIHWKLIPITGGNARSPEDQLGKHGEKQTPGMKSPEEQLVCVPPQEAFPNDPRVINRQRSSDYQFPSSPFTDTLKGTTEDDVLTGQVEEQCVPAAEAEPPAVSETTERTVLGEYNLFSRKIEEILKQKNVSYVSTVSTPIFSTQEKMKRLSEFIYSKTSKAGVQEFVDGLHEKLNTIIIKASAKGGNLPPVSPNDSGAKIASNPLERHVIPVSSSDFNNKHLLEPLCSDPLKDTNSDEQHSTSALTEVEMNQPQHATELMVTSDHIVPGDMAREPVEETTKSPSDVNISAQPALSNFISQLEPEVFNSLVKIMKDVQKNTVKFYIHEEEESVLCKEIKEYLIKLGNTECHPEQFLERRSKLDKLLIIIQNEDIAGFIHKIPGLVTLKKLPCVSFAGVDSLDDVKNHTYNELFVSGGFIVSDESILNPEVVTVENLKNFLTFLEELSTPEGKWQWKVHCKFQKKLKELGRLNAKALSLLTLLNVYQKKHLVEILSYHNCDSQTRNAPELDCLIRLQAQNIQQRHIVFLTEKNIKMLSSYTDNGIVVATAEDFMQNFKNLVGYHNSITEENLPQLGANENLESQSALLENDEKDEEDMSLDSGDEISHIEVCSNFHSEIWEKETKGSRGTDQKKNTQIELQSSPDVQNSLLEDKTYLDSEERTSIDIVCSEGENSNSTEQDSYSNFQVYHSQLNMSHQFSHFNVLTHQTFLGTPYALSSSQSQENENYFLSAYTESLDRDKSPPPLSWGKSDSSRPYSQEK
# This is one part of the list.
# Compound: Cc1cc(ccc1-c1ccccc1)C(=O)N1CCCN(CC1)C(=O)CCl [compound 10]
# Assay: probe-labelled cysteine peptide fold change vs DMSO (competition) (log2 fold change); higher = less target engagement (more negative = stronger competition)
# Details: THP-1, incubation time: 4 h
# 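Also: competitive profiling in live THP-1 cells: cysteine peptides tagged with an iodoacetamide desthiobiotin (IA-DTB) probe, intensity after compound treatment relative to DMSO-treated cells.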
Target,probe-labelled cysteine peptide fold change (10 µM),probe-labelled cysteine peptide fold change (50 µM)
FAM160B1_Q5W0V3_78_APVTDTNIPSHLEQMLDILVQEENERESGETGPCMEYLLHHK (UniProt Q5W0V3),0.136,0.41
FAM98C_Q17RN3_92_ELHCPDR (UniProt Q17RN3),-0.237,-0.107
FASN_P49327_1759_CLATHGR (UniProt P49327),0.116,-0.0264
FASN_P49327_1448_AINCATSGVVGLVNCLR (UniProt P49327),-0.0469,-0.172
FBXO4_Q9UKT5_330_HEWQDEFSHIMAMTDPAFGSSGRPLLVLSCISQGDVKR (UniProt Q9UKT5),0.14,-0.163
FASN_P49327_496_GGPEVQQVPAGERPLWFICSGMGTQWR (UniProt P49327),0.329,0.219
FBXO38_Q6PIJ6_242_NCAGPTNSLK (UniProt Q6PIJ6),0.0415,-0.194
FARSB_Q9NSD9_76_IDVPANRYDLLCLEGLVR (UniProt Q9NSD9),-0.0188,0.0236
FBXL19_Q6PCT2_644_LTDHCLPLFR (UniProt Q6PCT2),-0.171,-0.251
FAM208A_Q9UK61_734_TSNLSENCHLYEESPQPIGSLGHDADLRR (UniProt Q9UK61),-0.205,0.0465
FASN_P49327_779_PSCTIIPLMK (UniProt P49327),-0.0893,-0.0245
FAR2_Q96K12_104+111_EDMQELLSCTNIIFHCAATVR (UniProt Q96K12),0.00346,0.391
FBXW11_Q9UKB1_393_VWSTSTCEFVR (UniProt Q9UKB1),0.0772,0.242
